Measurements taken from paper PMC6138711.
No constants are given. Whether binding was seen depends on the method and setting. Binding seen in cells or lysates may run through a third protein. Some entries that bind do so weakly or less than the wild type. Blank lines part the entries; values can stand above or below the molecule they belong to.

Sequences of proteins named here, by UniProt entry; tags and fusion partners are left off.
UniProt Q69YN4: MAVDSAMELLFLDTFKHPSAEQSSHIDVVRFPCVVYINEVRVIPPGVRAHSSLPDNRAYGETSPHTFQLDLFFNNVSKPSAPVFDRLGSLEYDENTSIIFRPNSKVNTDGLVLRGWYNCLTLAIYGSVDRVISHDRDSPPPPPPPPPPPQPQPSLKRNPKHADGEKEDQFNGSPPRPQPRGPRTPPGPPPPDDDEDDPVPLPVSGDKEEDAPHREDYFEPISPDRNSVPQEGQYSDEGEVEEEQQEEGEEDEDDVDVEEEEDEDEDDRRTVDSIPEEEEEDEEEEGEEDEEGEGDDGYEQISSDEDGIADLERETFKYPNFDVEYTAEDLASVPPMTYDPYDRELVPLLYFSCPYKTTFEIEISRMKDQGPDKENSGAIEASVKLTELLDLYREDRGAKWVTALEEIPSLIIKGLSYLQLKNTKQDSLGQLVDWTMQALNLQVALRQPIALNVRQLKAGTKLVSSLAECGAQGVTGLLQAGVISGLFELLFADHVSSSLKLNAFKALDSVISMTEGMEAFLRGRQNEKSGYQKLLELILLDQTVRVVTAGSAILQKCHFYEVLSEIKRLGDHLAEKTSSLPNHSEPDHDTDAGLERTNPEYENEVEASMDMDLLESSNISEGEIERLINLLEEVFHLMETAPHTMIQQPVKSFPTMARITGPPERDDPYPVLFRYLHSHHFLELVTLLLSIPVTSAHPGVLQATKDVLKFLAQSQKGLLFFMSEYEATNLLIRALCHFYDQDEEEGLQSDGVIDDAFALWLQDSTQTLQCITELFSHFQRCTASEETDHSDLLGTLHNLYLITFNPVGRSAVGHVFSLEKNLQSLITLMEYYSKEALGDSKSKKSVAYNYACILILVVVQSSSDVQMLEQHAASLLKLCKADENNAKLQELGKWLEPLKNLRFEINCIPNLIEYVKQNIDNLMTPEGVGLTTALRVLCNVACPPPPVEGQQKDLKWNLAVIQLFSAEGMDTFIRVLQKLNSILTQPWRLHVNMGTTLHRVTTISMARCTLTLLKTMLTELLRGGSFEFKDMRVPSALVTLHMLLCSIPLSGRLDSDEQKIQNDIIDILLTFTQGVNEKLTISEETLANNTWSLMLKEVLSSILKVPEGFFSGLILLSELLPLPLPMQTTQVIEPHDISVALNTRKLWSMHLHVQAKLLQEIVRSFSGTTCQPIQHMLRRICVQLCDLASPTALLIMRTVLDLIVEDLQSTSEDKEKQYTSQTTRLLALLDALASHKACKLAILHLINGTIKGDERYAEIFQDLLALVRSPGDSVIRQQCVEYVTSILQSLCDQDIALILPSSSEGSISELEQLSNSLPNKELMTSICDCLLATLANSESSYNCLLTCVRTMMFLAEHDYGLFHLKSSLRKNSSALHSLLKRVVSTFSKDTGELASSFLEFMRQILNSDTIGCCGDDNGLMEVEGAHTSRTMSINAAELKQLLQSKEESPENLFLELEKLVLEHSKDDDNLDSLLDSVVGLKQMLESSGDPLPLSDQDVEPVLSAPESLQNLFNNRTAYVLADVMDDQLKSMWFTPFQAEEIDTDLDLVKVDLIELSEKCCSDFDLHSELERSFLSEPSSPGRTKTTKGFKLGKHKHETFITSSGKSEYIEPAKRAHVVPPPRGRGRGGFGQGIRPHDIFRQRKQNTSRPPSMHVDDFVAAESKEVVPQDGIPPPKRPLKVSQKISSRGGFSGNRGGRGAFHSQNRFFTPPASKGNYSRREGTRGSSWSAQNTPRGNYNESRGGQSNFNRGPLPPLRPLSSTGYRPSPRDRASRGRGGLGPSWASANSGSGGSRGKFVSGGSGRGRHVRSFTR
UniProt Q86U44: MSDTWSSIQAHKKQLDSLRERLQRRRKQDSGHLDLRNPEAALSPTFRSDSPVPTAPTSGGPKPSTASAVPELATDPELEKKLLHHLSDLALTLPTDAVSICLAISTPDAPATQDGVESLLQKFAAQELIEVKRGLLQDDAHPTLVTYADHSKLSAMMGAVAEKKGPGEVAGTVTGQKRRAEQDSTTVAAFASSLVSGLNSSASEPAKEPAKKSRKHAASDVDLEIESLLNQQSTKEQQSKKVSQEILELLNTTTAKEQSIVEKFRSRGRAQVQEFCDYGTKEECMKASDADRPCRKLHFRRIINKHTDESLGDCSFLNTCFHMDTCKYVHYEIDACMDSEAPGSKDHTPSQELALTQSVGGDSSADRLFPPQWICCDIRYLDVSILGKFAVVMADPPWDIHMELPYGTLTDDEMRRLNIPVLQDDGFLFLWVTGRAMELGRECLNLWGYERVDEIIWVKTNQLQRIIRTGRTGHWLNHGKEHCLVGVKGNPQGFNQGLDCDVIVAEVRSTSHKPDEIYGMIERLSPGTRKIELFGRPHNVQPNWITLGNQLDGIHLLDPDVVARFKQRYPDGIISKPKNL
UniProt Q13838: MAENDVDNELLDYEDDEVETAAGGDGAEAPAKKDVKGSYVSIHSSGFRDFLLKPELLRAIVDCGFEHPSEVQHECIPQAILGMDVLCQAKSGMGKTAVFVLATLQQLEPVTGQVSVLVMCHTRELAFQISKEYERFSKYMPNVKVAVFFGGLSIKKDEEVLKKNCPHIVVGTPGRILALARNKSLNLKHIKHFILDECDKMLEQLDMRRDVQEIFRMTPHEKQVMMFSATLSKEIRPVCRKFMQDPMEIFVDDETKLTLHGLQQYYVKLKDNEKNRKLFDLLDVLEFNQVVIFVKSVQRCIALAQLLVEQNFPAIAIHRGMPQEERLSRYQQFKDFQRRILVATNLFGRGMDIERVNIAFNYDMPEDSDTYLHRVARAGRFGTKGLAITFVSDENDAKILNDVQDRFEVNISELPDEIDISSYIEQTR

Legend:
Experiment in all cases: co-IP; antibody to the endogenous bait on Protein-G Dynabeads, cell extract in IP lysis buffer (50 mM HEPES-NaOH pH 7.5, 100 mM NaCl, 1 mM EDTA, 0.1% Triton X-100, 10% glycerol, 1 mM DTT) with RNase A and DNase 1, 2 h at 4 °C, Western blot; control IP with anti-FLAG; some panels after RNAi of KIAA1429, WTAP, METTL3 or ALYREF/CHTOP
[1] = biological target: T1, WTAP (human (endogenous in 293T)) (UniProt Q15007)
T1 sequence: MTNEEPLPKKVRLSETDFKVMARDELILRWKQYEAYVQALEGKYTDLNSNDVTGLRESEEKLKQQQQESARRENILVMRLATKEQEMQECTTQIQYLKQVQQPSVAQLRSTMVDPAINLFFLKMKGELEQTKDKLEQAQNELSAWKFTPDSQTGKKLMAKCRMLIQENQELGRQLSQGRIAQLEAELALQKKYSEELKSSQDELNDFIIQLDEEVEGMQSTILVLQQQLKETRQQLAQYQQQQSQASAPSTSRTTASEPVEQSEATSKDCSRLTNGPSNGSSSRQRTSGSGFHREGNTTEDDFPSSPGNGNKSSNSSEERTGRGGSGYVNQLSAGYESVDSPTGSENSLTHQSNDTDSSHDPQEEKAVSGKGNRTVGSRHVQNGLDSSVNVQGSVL

[2] = biological target: T2, METTL14 (human (endogenous in 293T)) (UniProt Q9HCE5)
T2 sequence: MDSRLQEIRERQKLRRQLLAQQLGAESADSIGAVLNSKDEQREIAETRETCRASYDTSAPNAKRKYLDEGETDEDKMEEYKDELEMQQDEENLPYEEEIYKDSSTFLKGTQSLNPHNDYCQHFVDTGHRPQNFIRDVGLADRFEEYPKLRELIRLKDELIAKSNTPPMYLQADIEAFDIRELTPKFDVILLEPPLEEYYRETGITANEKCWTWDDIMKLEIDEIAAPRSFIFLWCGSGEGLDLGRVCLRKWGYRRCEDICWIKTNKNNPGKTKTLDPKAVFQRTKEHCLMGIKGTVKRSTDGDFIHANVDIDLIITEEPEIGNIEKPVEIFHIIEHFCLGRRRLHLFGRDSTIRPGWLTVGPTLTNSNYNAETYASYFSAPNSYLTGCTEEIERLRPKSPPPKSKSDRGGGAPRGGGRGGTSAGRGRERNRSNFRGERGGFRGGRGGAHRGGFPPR

[3] = biological target: KIAA1429 (human (endogenous in 293T)) (UniProt Q69YN4)
[4] = biological target: METTL3 (human (endogenous in 293T)) (UniProt Q86U44)

binding [1]: binds
binding [2]: binds
binding [3]: binds
binding [4]: binds
Molecule: UAP56 (from UniProt Q13838 1-428)

binding [1]: binds
binding [2]: binds
binding [3]: binds
binding [4]: binds
B1: THOC5 (protein, UniProt Q13769 1-683)
chain: MSSESSKKRKPKVIRSDGAPAEGKRNRSDTEQEGKYYSEEAEVDLRDPGRDYELYKYTCQELQRLMAEIQDLKSRGGKDVAIEIEERRIQSCVHFMTLKKLNRLAHIRLKKGRDQTHEAKQKVDAYHLQLQNLLYEVMHLQKEITKCLEFKSKHEEIDLVSLEEFYKEAPPDISKAEVTMGDPHQQTLARLDWELEQRKRLAEKYRECLSNKEKILKEIEVKKEYLSSLQPRLNSIMQASLPVQEYLFMPFDQAHKQYETARHLPPPLYVLFVQATAYGQACDKTLSVAIEGSVDEAKALFKPPEDSQDDESDSDAEEEQTTKRRRPTLGVQLDDKRKEMLKRHPLSVMLDLKCKDDSVLHLTFYYLMNLNIMTVKAKVTTAMELITPISAGDLLSPDSVLSCLYPGDHGKKTPNPANQYQFDKVGILTLSDYVLELGHPYLWVQKLGGLHFPKEQPQQTVIADHSLSASHMETTMKLLKTRVQSRLALHKQFASLEHGIVPVTSDCQYLFPAKVVSRLVKWVTVAHEDYMELHFTKDIVDAGLAGDTNLYYMALIERGTAKLQAAVVLNPGYSSIPPVFQLCLNWKGEKTNSNDDNIRAMEGEVNVCYKELCGPWPSHQLLTNQLQRLCVLLDVYLETESHDDSVEGPKEFPQEKMCLRLFRGPSRMKPFKYNHPQGFFSHR
